Where a chain is given by its changes, count along the chain named. Results are given in words; binding and its absence hold for the method and conditions named. In cells and extracts the contact can be indirect. These calls come from enrichment with a bait or labelling near it, and not all partners need be listed. No binding means not detected with the bait. Sequences can lack the tags named with a protein.
T1: TOFU-2(E216A)-HA (C. elegans (endogenous in young adult worms)) (UniProt Q19614)
T1 sequence: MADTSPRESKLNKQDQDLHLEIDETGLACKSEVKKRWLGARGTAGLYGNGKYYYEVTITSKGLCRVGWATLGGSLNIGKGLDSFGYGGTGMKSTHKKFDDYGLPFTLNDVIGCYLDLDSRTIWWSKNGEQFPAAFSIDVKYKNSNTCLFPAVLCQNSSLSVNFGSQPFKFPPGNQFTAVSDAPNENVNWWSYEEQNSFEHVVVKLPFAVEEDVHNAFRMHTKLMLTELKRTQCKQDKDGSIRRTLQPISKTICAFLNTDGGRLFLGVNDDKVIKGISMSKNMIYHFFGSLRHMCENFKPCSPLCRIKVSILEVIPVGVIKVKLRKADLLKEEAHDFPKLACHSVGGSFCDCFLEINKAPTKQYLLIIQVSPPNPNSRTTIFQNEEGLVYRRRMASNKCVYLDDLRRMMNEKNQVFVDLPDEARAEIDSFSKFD

T2: TOFU-2-HA (endogenous TOFU-2 tagged with a human influenza haemagglutinin tag) (C. elegans (endogenous in young adult worms)) (UniProt Q19614)
T2 sequence: T1 sequence with A216E

B1: TOFU-1 (endogenous) (protein, UniProt O17608 1-373)
chain: MAALFEENDSYSDSENEEDFSGFLSEIEENENEDEFENDDEFEDDDELENVDELEDDELSSEEVDIPSENEVIVELHDGQAEVEESLLDALLGKALAGDQMNSRIEGLFEDLDSSVEPDIIDRSELEDVDSGISVGAVSSSSAETQASDAKCKNKDAFDMSSLKKYMQYITEEEHAVSVEDIPDFASKKNVYGTSFNVRNGIMSRPPRFEFARHDQRWIDSCVSMAYEKDKTLKELITLGKLTTTVKAGAKIEFRTKFTDVHIRSADEINLMETHDIQQIIRDALNSKRLAVVLFGIGKDGKVTGCHMGPGQQDNLRLALDTAVQTEFAPPIENILDVVDMNFVPVEEMDETFLIVIRVKQLRNQVYRLESSV
B2: PRG-1 (endogenous) (protein, UniProt P90786 1-824)
chain: MASGSGRGRGRGSGSNNSGGKDQKYLGTIQPDLFIRQQGQSKTGSSGQPQKCFANFIPIEMTQSDYSIYQYHVEFEPTVDSKANREKMLRDNNVTDEIGHHFVFDGMILYLKEEWEQNQMIEVQHPIDRSLICIRFKQTNRFLVDDPQTINIFNTIIRRSFDALQLTQLGRNYFNWGDSRAVPDYNMSILPGYETAIRMYEENFMLCVENRFKMVREESMYILFHKELRSCQNNPQRVQEKMNEMYGGTTIITRYNNKLHRYTRLDYSISPLSEFVKDGQSITLKEYFKNQYGIEITVDDQPIIISEGKPKQPGEPPQVSYIVPELCFPTGLTDEMRKDFKMMKEIAKHTRMSPQQRLVESRKLIVDLSKNEKVMECFKYWGISLGQDLANVQARVLKSEPLQGKKTYEGKQAEWARGVKECGIYRGSNMTNWIVIGPGSGNSGLLSQKFIEEARRLGKILQVQLGEPMCVPIRGISPNDYLEGVKGAIKQVDGEDIHMLVVMLADDNKTRYDSLKKFLCVECPIPNQCVNLRTLAGKSKDGGENKNLGSIVLKIVLQMICKTGGALWKVNIPLKNTMIVGYDLYHDSTLKGKTVGACVSTTSNDFTQFYSQTRPHENPTQLGNNLTHFVRKALKQYYDSNDQTLPSRLILYRDGAGDGQIPYIKNTEVKLVRDACDAVTDKAAELSNKVQEKIKLAFIIVTKRVNMRILKQGSSLDNAINPQPGTVVDTTVTRPERMDFYLVPQFVNQGTVTPVSYNIIHDDTDLGPDKHQQLAFKLCHLYYNWQGTVRVPAPCQYAHKLAFLTAQSLHDDANGCLRDKLFFL
B3: SLFL-3 (C35E7.8, endogenous) (protein, UniProt O61766 1-383)
chain: MDSGDFSPMQSNFSLGFMSFEDIPEDARTTEMIDKIVFEEDKEYDHTQDSFRYGRVTTGVSYNLVTGKIPKTVFEQVKAKDDENDNVEFEMEHLEDKETAHKTQTFDELYESQMPKYFDYQSNFSDVNGIWTLLFDQNHYEKMSTFELQAAICAALNSKHFMMICVGIDAFNAVTGVEMSAKDRVVFRMALTRAVAGEFQPPLVKVAPKQLTGVSPMKRDISEVTSSIDVLFVPVIGVTDEVENNRFLIVVRVKEISDKVYQISSGRIYNEQEGRVVEMSDMNEAFHKLIVEKSISDIQTRRGSMFMLEPEPFLEDSAVIFTESNEIPSENHEISRVHVKNCTERSLSQSLLNLLDIQNIGWIFFGTALSFCIYNNAIKPLVK
B4: SLFL-4 (F36H12.2, endogenous) (protein, UniProt O76720 1-352)
chain: MIDKIVFEEDEEYDLTQDSFRYGRVTTGASYNLVTGKIPETVLEQVKAKDDENDDVEFEMDHLEDKEAVQKTKTFDELYESQMPKYFEYQSNFSEVNGIWTLLFDQNHYENMSTFELQAAICAALNSKHYMMICVGIDAFNAVTGVEMSAKDRVVFRMALTRAVAGEFQPPLVKVAPKQLTGVSPMKRDISEVTSSIDVLFIPVIGVTDEVENNRFLIVVRVKEISDKVYQISSGRIYNELEGRVVEMSDMNEAFHKLIVEQSISDIQTRRGSMFMLEPEPFLEDSPVIFTGSKEILRENHEIPNILKENSTERSLSQSLLNLLDIQNIGWIFFGTALSCCIYNNAIKPLVK

The binders below were run against T1, TOFU-2(E216A)-HA (C. elegans (endogenous in young adult worms)) (assay: affinity purification with mass spectrometry; anti-HA (12CA5) immunoprecipitation from young adult C. elegans lysate (0.75 mg protein), protein G magnetic beads, 25 mM Tris HCl pH 7.5, 150 mM NaCl, 1.5 mM MgCl2, 4 C; label-free quantification against wild type, quadruplicates).
B1 was tested, and the binding was “binds”. With B2 the binding was “no binding”.

What follows are binders tested against T2, TOFU-2-HA (endogenous TOFU-2 tagged with a human influenza haemagglutinin tag) (C. elegans (endogenous in young adult worms)) in the same assay as above.
With B1 the binding was “binds”. With B3 the binding was “binds”. B4 was tested, and the binding was “binds”. B2 was tested, and the binding was “no binding”.

— PMC10567574, “piRNA processing by a trimeric Schlafen-domain nuclease” (Nature, 2023)
